This note sets out measurements from publication PMC11915509, “Small molecule inhibitors of hnRNPA2B1–RNA interactions reveal a predictable sorting of RNA subsets into extracellular vesicles” (Nucleic Acids Research, 2025).

The chains behind the UniProt entries cited, without tags or fusion partners. Where a name states a change or a piece, a line headed by the entry shows the natural chain unless it says otherwise.
UniProt O88569: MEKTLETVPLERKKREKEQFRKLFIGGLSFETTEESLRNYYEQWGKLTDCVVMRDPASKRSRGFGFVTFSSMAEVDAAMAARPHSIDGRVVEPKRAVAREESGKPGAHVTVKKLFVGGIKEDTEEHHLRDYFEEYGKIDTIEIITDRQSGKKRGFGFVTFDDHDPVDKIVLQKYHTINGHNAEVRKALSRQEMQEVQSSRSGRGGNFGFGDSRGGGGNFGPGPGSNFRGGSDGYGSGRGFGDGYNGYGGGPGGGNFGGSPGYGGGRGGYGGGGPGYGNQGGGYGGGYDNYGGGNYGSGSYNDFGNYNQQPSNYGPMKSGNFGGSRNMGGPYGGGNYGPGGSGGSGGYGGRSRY
UniProt P22626: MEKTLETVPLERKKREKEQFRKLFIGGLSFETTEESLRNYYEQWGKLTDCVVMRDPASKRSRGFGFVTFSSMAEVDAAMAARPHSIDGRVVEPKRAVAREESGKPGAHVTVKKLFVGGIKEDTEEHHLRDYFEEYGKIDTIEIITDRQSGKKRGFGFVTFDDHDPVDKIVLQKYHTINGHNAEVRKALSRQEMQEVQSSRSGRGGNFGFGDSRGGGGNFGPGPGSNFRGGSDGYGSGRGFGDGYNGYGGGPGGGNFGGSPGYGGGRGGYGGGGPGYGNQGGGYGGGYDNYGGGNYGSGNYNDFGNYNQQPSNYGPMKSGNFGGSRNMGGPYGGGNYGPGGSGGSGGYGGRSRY

Construct, isoform or probe ends are uncertain for at least one entry. Weaker means in comparison with the reference protein, sequence or condition of that experiment. For some of these results: Where cells or extracts were used, other partners may take part.

The target in data set [1] is endogenous Hnrnpa2b1 (UniProt O88569). The data set can be described thus: pull-down and immunoblot. As to conditions: EXOmotif > RNA 114 > RNA 276; pull-down: 25 mM HEPES pH 7.5, 100 mM NaCl, 4 C; protein in an extract; label: 5'-biotin-TEG. In general terms: A western blot detects proteins with antibodies after separation by electrophoresis.
Data set [2] has as its target GST-hnRNPA2B1 (Homo sapiens) (UniProt P22626). As to the kind of experiment: AlphaScreen saturation binding. The following applies: nanomolar range, lower affinity than EXOmotif, Kd only in figure, AlphaScreen: 25 mM HEPES pH 7.4, 100 mM NaCl, 0.01% BSA, RT 1 h, REMSA: 20 mM HEPES pH 7.5, 50 mM KCl, 0.5 ug BSA, 0.25% glycerol, recombinant protein, protein details: N-terminal GST (pGEX-6P-1), label: 5'-biotin-TEG. Background: In Alpha technology, singlet oxygen from a donor bead excites a nearby acceptor bead.

With AAGGACUAGC [RNA 114], the binding result in data set [1] and in data set [2] was “binds more weakly” each time.
As to AGGACUGC [RNA 276], the binding result in data set [1] is recorded as “binds more weakly”.
“GGGGAGGUUAGGGAGGAGGGGGGUAGGCGCC [EXOmotif RNA (biotin)]”: in data set [1], the binding result is on record as “binds”.
